According to US10550150B2 (CADILA HEALTHCARE LIMITED, priority 2015, dated 2020):

Assay: general procedure: Fmoc solid-phase peptide synthesis; Fmoc-PAL-PEG-PS, Fmoc-Rink amide MBHA, 2-chloro-trityl chloride, HMP, trichloroacetimidate or p-nitrophenylcarbonate Wan; DIPCDI/HOBt or DIPCDI/HOAt (SPPS); DCC/HOBt (solution phase)
[1] = whole synthesis, analytical RP-HPLC

6,9-dibenzyl-15-(4-((tert-butoxycarbonyl)amino)butyl)-12-isobutyl-2,2-dimethyl-4,7,10,13-tetraoxo-3-oxa-5,8,11,14-tetraazahexadecan-16-oic acid
step yield (late stage modification step): 97%

H2N-Phe-Phe-Leu-Lys-Hpp-CONH2
crude HPLC purity [1]: 85%
final HPLC purity [1]: 99.18%

N-(6-amino-1-(3-benzyl-3,6-diazabicyclo[3.1.1]heptan-6-yl)-1-oxohexan-2-yl)-2-(2-(2-amino-3-phenylpropanamido)-3-phenylpropanamido)-4-methylpentanamide
step yield (late stage modification step): 84%

bis-Boc-N-(6-amino-1-(3-benzyl-3,6-diazabicyclo[3.1.1]heptan-6-yl)-1-oxohexan-2-yl)-2-(2-(2-amino-3-phenylpropanamido)-3-phenylpropanamido)-4-methylpentanamide
step yield (coupling step): 89%

methyl 6,9-dibenzyl-15-(4-((tert-butoxycarbonyl)amino)butyl)-12-isobutyl-2,2-dimethyl-4,7,10,13-tetraoxo-3-oxa-5,8,11,14-tetraazahexadecan-16-oate
step yield (coupling step): 92%
